Reference: the supplement of paper PMC4604168 (melanoma cell lines)
The other results are listed elsewhere or left out. Repeats are few or missing, and single values can be far off.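 The apoptosis fraction was the count of cleaved-PARP antibody-stained nuclei relative to all DNA-stained nuclei, imaged in 1,536-well plates. Screening doses were set so most cells survived, and baseline and induced cleaved-PARP levels vary greatly across cell lines.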

How the values were obtained:
Test in all cases: cleaved PARP positive nuclei fraction relative to DMSO control; melanoma cells; higher = more apoptosis
Conditions in all cases: library dose: low library concentration; 72 h
[1] = tested on: COLO792
[2] = tested on: COLO800
[3] = tested on: COLO829
[4] = tested on: G361
[5] = tested on: IPC-298
[6] = tested on: IST-MEL1
[7] = tested on: LB2518-MEL
[8] = tested on: LOXIMVI
[9] = tested on: MEL-HO
[10] = tested on: MZ2-MEL
[11] = tested on: MeWo
[12] = tested on: RPMI7951
[13] = tested on: RVH-421
[14] = tested on: SkMel28
[15] = tested on: SkMel2
[16] = tested on: SkMel30
[17] = tested on: SkMel5
[18] = tested on: UACC257
[19] = tested on: UACC62

SMILES | cleaved PARP positive nuclei fraction [1] | cleaved PARP positive nuclei fraction [2] | cleaved PARP positive nuclei fraction [3] | cleaved PARP positive nuclei fraction [4] | cleaved PARP positive nuclei fraction [5] | cleaved PARP positive nuclei fraction [6] | cleaved PARP positive nuclei fraction [7] | cleaved PARP positive nuclei fraction [8] | cleaved PARP positive nuclei fraction [9] | cleaved PARP positive nuclei fraction [10] | cleaved PARP positive nuclei fraction [11] | cleaved PARP positive nuclei fraction [12] | cleaved PARP positive nuclei fraction [13] | cleaved PARP positive nuclei fraction [14] | cleaved PARP positive nuclei fraction [15] | cleaved PARP positive nuclei fraction [16] | cleaved PARP positive nuclei fraction [17] | cleaved PARP positive nuclei fraction [18] | cleaved PARP positive nuclei fraction [19]
Cn1c(Nc2ccc(C(F)(F)F)cc2)nc2cc(Oc3ccnc(-c4ncc(C(F)(F)F)[nH]4)c3)ccc21 + NC(=O)Nc1cc(-c2cccc(F)c2)sc1C(=O)N[C@H]1CCCNC1 [AZD7762] (first compound 0.08 µM, partner dose 0.02 µM) | 181% | 134% | 107% | 124% | 64.4% | 100% | 188% | 45.3% | 39.9% | 84.1% | 73.1% | 205% | 66.2% | 515% | 260% | 238% | 89.5% | 376% | 668%
Cc1cc(N2CCOCC2)cc2[nH]c(-c3c(NC[C@@H](O)c4cccc(Cl)c4)cc[nH]c3=O)nc12 + CN(C)S(=O)(=O)c1ccc2c(c1)/C(=C/c1cc3c([nH]1)CCCC3)C(=O)N2 [SU6656] (first compound 0.2 µM, partner dose 0.4 µM) | 241% | 108% | 274% | 249% | 129% | 54.3% | 114% | 54.9% | 73.8% | 199% | 97.4% | 90.6% | 51.5% | 138% | 130% | 79% | 70.2% | 119% | 83.4%
Cn1c(Nc2ccc(C(F)(F)F)cc2)nc2cc(Oc3ccnc(-c4ncc(C(F)(F)F)[nH]4)c3)ccc21 + O=C(CCCCCCC(=O)Nc1ccccc1)NO [vorinostat] (first compound 0.08 µM, partner dose 0.08 µM) | 262% | 65.5% | 96.9% | 166% | 168% | 70% | 577% | 49.1% | 92.8% | 136% | 61.8% | 88.9% | 212% | 154% | 96% | 132% | 47.3% | 760% | 214%
C=CCNC1=C2C[C@@H](C)C[C@H](OC)[C@H](O)[C@@H](C)/C=C(\C)[C@H](OC(N)=O)[C@@H](OC)/C=C\C=C(/C)C(=O)NC(=CC1=O)C2=O [Tanespimycin] + COc1cc2c(Oc3ccc4[nH]c(C)cc4c3F)ncnc2cc1OCCCN1CCCC1 [cediranib] (first compound 0.002 µM, partner dose 0.4 µM) | 136% | 88.8% | 224% | 113% | 45.6% | 63.2% | 148% | 101% | 34.3% | 170% | 114% | 42.2% | 93.6% | 91.1% | 92.6% | 60.4% | 131% | 139% | 74.2%
C=CCNC1=C2C[C@@H](C)C[C@H](OC)[C@H](O)[C@@H](C)/C=C(\C)[C@H](OC(N)=O)[C@@H](OC)/C=C\C=C(/C)C(=O)NC(=CC1=O)C2=O [Tanespimycin] + Cn1cncc1[C@@](N)(c1ccc(Cl)cc1)c1ccc2c(c1)c(-c1cccc(Cl)c1)cc(=O)n2C [tipifarnib] (first compound 0.002 µM, partner dose 0.01 µM) | 79% | 135% | 101% | 77% | 94.1% | 98.3% | 119% | 267% | 142% | 108% | 124% | 150% | 237% | 54.8% | 144% | 78.7% | 136% | 81.8% | 130%
CC(C)(C)c1cnc(CSc2cnc(NC(=O)C3CCNCC3)s2)o1 + CN(NC(=O)CC(=O)NN(C)C(=S)c1ccccc1)C(=S)c1ccccc1 [STA4783] (first compound 0.01 µM, partner dose 0.006 µM) | 163% | 121% | 145% | 128% | 62.7% | 60.5% | 402% | 168% | 36.8% | 72.5% | 37.1% | 96.4% | 71.4% | 40.8% | 144% | 154% | 59.4% | 292% | 284%
C[C@]1(c2nc3c(C(N)=O)cccc3[nH]2)CCCN1 [Veliparib] + CC1(C)NC(=O)N(c2ccc([N+](=O)[O-])c(C(F)(F)F)c2)C1=O [nilutamide] (first compound 1.4 µM, partner dose 1 µM) | 88.1% | 128% | 20.5% | 37.2% | 62.7% | 44.7% | 50.4% | 95.2% | 71.4% | 74.1% | 70.6% | 113% | 40.8% | 30.7% | 82.8% | 70% | 74.8% | 118% | 180%
OCCn1cc(-c2cnc3nnn(Cc4ccc5ncccc5c4)c3n2)cn1 + Cn1cncc1[C@@](N)(c1ccc(Cl)cc1)c1ccc2c(c1)c(-c1cccc(Cl)c1)cc(=O)n2C [tipifarnib] (first compound 1 µM, partner dose 0.01 µM) | 105% | 68.6% | 83.7% | 155% | 48.1% | 104% | 74.6% | 90.8% | 69.5% | 148% | 40.6% | 98.6% | 87.4% | 53.1% | 201% | 55.6% | 30.3% | 147% | 108%
COc1cc(Nc2ncc(F)c(Nc3ccc4c(n3)NC(=O)C(C)(C)O4)n2)cc(OC)c1OC [Tamatinib] + NC(=O)Nc1cc(-c2cccc(F)c2)sc1C(=O)N[C@H]1CCCNC1 [AZD7762] (first compound 0.4 µM, partner dose 0.02 µM) | 121% | 44.4% | 113% | 99.8% | 99.7% | 48.2% | 48.6% | 119% | 95.2% | 99.1% | 148% | 200% | 77.8% | 128% | 81% | 171% | 68.3% | 68.8% | 149%
OCc1c[nH]c2ccccc12 [Indole-3-carbinol] + CO[C@@H]1[C@H](N(C)C(=O)c2ccccc2)C[C@H]2O[C@]1(C)n1c3ccccc3c3c4c(c5c6ccccc6n2c5c31)C(=O)NC4 [Midostaurin] (first compound 0.8 µM, partner dose 0.08 µM) | 96.3% | 124% | 296% | 111% | 101% | 159% | 208% | 52.6% | 73.8% | 57.1% | 66.1% | 120% | 331% | 121% | 129% | 77.4% | 230% | 148% | 61.8%
Cc1nc(Nc2ncc(C(=O)Nc3c(C)cccc3Cl)s2)cc(N2CCN(CCO)CC2)n1 [dasatanib] + O=C(Nc1cccc(Cl)c1)Nc1ncc(CCNc2ncnc3ccsc23)s1 [SNS314] (first compound 0.004 µM, partner dose 0.0008 µM) | 227% | 110% | 197% | 117% | 549% | 39.8% | 151% | 59.2% | 165% | 124% | 54.2% | 59.7% | 208% | 150% | 67.8% | 64.9% | 68.9% | 78.1% | 167%
Cc1ccc(NC(=O)c2cccc(N(C)C)c2)cc1NC(=O)c1ccc(O)cc1 + O=C(O)c1ccc(-c2c[nH]c3ncc(-c4ccccc4)cc23)cc1C1CCCC1 [GSK650394] (first compound 2 µM, partner dose 0.16 µM) | 157% | 95.3% | 56.1% | 74.2% | 118% | 210% | 103% | 45.1% | 135% | 47.9% | 223% | 97.5% | 91.8% | 86.9% | 46.7% | 72.1% | 64.2% | 283% | 262%
CC1(C)NC(=O)N(c2ccc([N+](=O)[O-])c(C(F)(F)F)c2)C1=O [nilutamide] + NCC(=O)Nc1ccc(-n2nc(C(F)(F)F)cc2-c2ccc3c(ccc4ccccc43)c2)cc1 [OSU03012] (first compound 1 µM, partner dose 1 µM) | 136% | 92.7% | 147% | 30.2% | 113% | 134% | 38.8% | 44.7% | 70.7% | 181% | 132% | 53.8% | 118% | 32.8% | 221% | 128% | 140% | 95.7% | 156%
Cn1nnc2c(C(N)=O)ncn2c1=O [temozolomide] + C=CCn1c(=O)c2cnc(Nc3ccc(N4CCN(C)CC4)cc3)nc2n1-c1cccc(C(C)(C)O)n1 [MK1775] (first compound 2 µM, partner dose 0.02 µM) | 320% | 202% | 83.7% | 53.5% | 108% | 115% | 47.2% | 47.9% | 141% | 112% | 69.7% | 153% | 83% | 120% | 88.5% | 80.3% | 141% | 91.2% | 202%
Cc1ccc(NC(=O)c2cccc(N(C)C)c2)cc1NC(=O)c1ccc(O)cc1 + O=C(Nc1cccc(Cl)c1)Nc1ncc(CCNc2ncnc3ccsc23)s1 [SNS314] (first compound 2 µM, partner dose 0.0008 µM) | 106% | 58.3% | 101% | 89.5% | 106% | 102% | 157% | 60.6% | 71.9% | 147% | 214% | 138% | 219% | 325% | 65% | 69.7% | 70% | 104% | 69.3%
COc1cc(Nc2ncc(F)c(Nc3ccc4c(n3)NC(=O)C(C)(C)O4)n2)cc(OC)c1OC [Tamatinib] + Cn1cncc1[C@@](N)(c1ccc(Cl)cc1)c1ccc2c(c1)c(-c1cccc(Cl)c1)cc(=O)n2C [tipifarnib] (first compound 0.4 µM, partner dose 0.01 µM) | 196% | 98.7% | 103% | 133% | 390% | 113% | 638% | 208% | 78% | 116% | 128% | 140% | 164% | 162% | 193% | 99.9% | 549% | 2.17% | 277%
